Tests used:
[1] = test system: coronary insufficiency induced with glanduitrine in male rats (CFY strain); assay: Anti-anginose activity by the method of Nieschulz, coronary insufficiency induced with glanduitrine; format: in vivo; conditions: inhibition caused by Prenilamine=1
Experimental: Anti-anginose activity of the compounds according to the invention was tested on male rats from the CFY strain by the method of Nieschulz (Nieschulz, E. et al., Arzneimittelforschung, 5, 680/1955/). The rats weighed about 180 to 220 g. each and were narcotized prior to treatment. Electrocardiograms were registered by means of a NEK-2 ECG-instrument using a standard II output. The coronary insufficiency was induced with a 4 IE/kg. i.v. dose of glanduitrine. Prenilamine was used as a reference compound.
(§1) The acute intravenous toxicity was determined on rats of both sexes, using five animals for each doses. The relative anti-anginose activity was calculated on the basis of the following equation: [formula] Test results are shown in Table 3 below (inhibition caused by Prenilamine=1).

in vivo = conditions: rat, iv, rats, i.v., read-out: LD50-value (acute intravenous toxicity)
Experimental: as §1

N. ischiadicus of rats = assay: Local anaesthetic activity by the method of Truant and d'Amato; format: in vivo; conditions: related to Lidocaine (1.0)
Experimental: The local anaesthetic activity was tested by the method of Truant and d'Amato (Truant, A. P. and Wiedling, S., Acta Chirurg. Scand. 116, 351/1958) on the N. ischiadicus of rats. The number of the animals showing the signs of characteristic motor-paralysis was recorded. As a control compound Lidocaine was used. This test can be carried out with water-soluble substances only.

CCN(CC)CC(=O)Nc1c(C)cccc1C [Lidocaine, reference compound]
Relative efficiency (relative anti-anginose activity) [1]: 1.4
LD50 (in vivo): 34 mg/kg
Local anaesthetic activity, relative efficiency (N. ischiadicus of rats): 1.0

Reference: US4259257A, “1-Phenyl-2-amino-1,3-propanediol-N-aryloxyalkyl derivatives” (Egyt Gyogyszervegyeszeti Gyar, priority 1977, dated 1981)
